Library screening results

Amino acid sequences for entries named in this document (tags omitted).
UniProt E9BF75, entry or part of it: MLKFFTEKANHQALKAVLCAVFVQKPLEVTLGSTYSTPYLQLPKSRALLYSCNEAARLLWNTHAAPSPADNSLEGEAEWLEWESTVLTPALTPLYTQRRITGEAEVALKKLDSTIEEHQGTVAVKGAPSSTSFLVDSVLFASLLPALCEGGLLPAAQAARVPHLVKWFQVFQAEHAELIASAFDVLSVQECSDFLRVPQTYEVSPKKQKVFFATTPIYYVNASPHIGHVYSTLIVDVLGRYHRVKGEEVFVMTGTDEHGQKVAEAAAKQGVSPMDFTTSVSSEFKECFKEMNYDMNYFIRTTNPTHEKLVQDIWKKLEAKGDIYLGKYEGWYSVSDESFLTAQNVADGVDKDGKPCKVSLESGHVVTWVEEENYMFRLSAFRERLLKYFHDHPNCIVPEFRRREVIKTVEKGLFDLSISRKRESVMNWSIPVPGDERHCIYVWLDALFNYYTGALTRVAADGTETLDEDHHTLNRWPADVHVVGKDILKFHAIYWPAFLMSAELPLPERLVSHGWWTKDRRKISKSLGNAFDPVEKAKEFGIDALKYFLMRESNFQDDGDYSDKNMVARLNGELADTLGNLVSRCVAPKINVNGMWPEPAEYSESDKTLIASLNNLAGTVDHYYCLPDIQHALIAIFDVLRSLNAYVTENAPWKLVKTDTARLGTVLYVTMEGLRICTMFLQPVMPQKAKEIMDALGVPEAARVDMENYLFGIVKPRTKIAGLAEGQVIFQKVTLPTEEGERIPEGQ

Results are percentages, as filed.
The controls that fix the scale are not given in the record; negative values are as filed.
This is an unselected part of the compounds tested.
A dash means the value is not listed here; it may have been measured.

Mtb heat-shock: 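Assay on Mycobacterium tuberculosis, filed only as a heat shock assay from Cornell; the read-out is not stated. The concentration is filed as 10 mM, unlikely as a test dose, so the dose is not known. Direction is inferred from retests: higher values go with stronger inhibition. Size under these conditions: about 69,000 compounds, about 930 of them at 50% or above in at least one test.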
Mtb growth Cornell: 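Whole-cell assay for inhibitors of Mycobacterium tuberculosis growth, labelled Cornell in the record; the read-out is not stated. The concentration is filed as 10 mM, unlikely as a test dose, so the dose is not known. Higher means stronger inhibition (inferred from two other growth screens of the library). About 53,000 compounds were tested under these conditions; 1.7% (about 900) showed 50% or more at least once.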
LdMetRS: 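Primary screen of methionyl-tRNA synthetase; the read-out is not stated. Target: Methionyl-tRNA synthetase (putative), Leishmania donovani (UniProt E9BF75). The test concentration is not given. Values are per cent inhibition. About 68,000 compounds were tested under these conditions; 0.035% (about 24) showed 50% or more at least once.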

compound,Mtb heat-shock,Mtb growth Cornell,LdMetRS
Cc1cc(NC(=O)CN2CCc3cnc(C(C)C)nc3C2)on1,19%,-,9.639%
CSc1ncc(C(=O)N2C[C@@H](NC(C)=O)[C@H](c3ccc(C)cc3)C2)cn1,11.63%,17.18%,9.091%
O=C1CC[C@H]2[C@H](CCN2S(=O)(=O)C2CC2)N1CCN1CCCC1,-,-,-1.558%
CCSc1ccccc1C(=O)NCCn1nc(-n2cncn2)ccc1=O,1.22%,5.588%,6.233%
Cc1noc(C)c1CN1CC[C@H]2OCC[C@@]2(C(=O)NC2CCCC2)C1,-,-,6%
Cc1ccc(CN2CCc3onc(C(=O)Nc4cccnc4)c3C2)o1.O=C(O)C(F)(F)F.O=C(O)C(F)(F)F,26.18%,61.31%,-
CN(C)CCN1CCOCC2(CCCN(C(=O)c3ccccn3)C2)C1.O=C(O)C(F)(F)F.O=C(O)C(F)(F)F (centres undefined),-14.84%,14.99%,-
O=C(O)[C@]12CCCN(CC3CCOC3)C[C@H]1CN(c1ncccn1)C2 (some centres undefined),-,-,17.66%
CS(=O)(=O)CC(=O)N1C[C@@H]2CN(Cc3ccoc3)CCO[C@@H]2C1,-,-,13.19%
O=C(c1ccncc1)N1CCCC1c1nc(O)cc(-c2ccccn2)n1 (centres undefined),-10.34%,-36.16%,14.69%
CC(=O)N1CCCn2c(nc(CNS(=O)(=O)C3CC3)cc2=O)C1,-4.489%,11.16%,18.8%
COCC(=O)N1CCC2(CC1)CC(N1CCN(C)CC1)CO2 (centres undefined),-4.361%,5.984%,8.696%
CCCN1CCCC1c1nc(Cc2ccc(F)cc2)no1 (centres undefined),-5.003%,11.51%,20.38%
CC(=O)c1ccc(C(=O)N2C[C@@H]3CC[C@H](C2)N(CC2CCC2)C3)s1,-,-,21.34%
O=C(O)C(F)(F)F.O=C(O)C(F)(F)F.O=C1N(c2cncnc2)CCC12CCCN(Cc1cccnc1)C2 (centres undefined),-18.13%,17.78%,-
Cc1nnc(NCc2ccc(Cl)cc2)o1,9.582%,21.04%,7.853%
Cc1ccc(CN2C[C@@H]3COC[C@H](NS(C)(=O)=O)[C@@H]3C2)s1,-,-,6.301%
CCOCCC(=O)N1CC(=O)Nc2cc(Br)ccc21,-23.35%,-,4.178%
CCn1nc(C)c2nnn(CC(=O)Nc3cccc(Cl)c3)c(=O)c21,17.8%,-,13.69%
Cc1cc(C)n(CC2CCCN2C(=O)c2ccc3nncn3c2)n1 (centres undefined),-12.38%,1.202%,10.12%
O=C(O)C(c1ccc2c(c1)OCO2)N1CCCC1 (centres undefined),4.58%,-8.718%,10.61%
CC(C)c1cc(=O)[nH]c(-c2ccccc2CN2CCCCCC2)n1,9.622%,47.1%,10.79%
CCN1CC(CN(C)c2cc(C)nc(N)n2)Oc2ccccc21 (centres undefined),12.09%,100.1%,8.815%
COC(=O)NCC(=O)N(C)CC1Cc2ccccc2CN1C (centres undefined),-8.627%,7.749%,9.355%
CC1c2cc(F)ccc2CCN1CCCS(=O)(=O)C(C)C (centres undefined),-27.64%,-,11.78%
CCOCc1nc(-c2ccc(F)cc2Cl)n(C2CCN(C)CC2)n1,0.8102%,-,14.88%
COCc1cn(C2CCN(CCC(C)c3ccccc3)CC2)nn1 (centres undefined),-16.89%,-,16.97%
COc1ccc(C(=O)NCCC(N)=O)c(I)c1,-12.94%,-0.6619%,7.434%
CCOc1ncccc1Cn1cc(-c2nccn2C)nn1,10.22%,6.256%,13.03%
Cc1cccnc1NC(=O)c1ccc(-n2ncc(C#N)c2N)cc1,-15.76%,-,24.51%
O=C(NCC1CN(c2ncccn2)Cc2nccn2C1)c1cccnc1.O=C(O)C(F)(F)F (centres undefined),-4.817%,21.87%,-
CC(C)CN1C[C@H]2C[C@H](C(=O)N3CCCC3)[C@@H](C1)O2,-,-,6.011%
c1ccc(NC[C@@H]2CCC[C@@H]3CN(Cc4nccs4)C[C@@H]32)nc1,-,-,16.25%
CC(C)(C)OC(=O)N1CCCN(Cc2ccon2)c2ccccc21,-41.59%,-14.29%,2.419%
Cc1ccsc1CNCC1CCCN1c1cccnn1 (centres undefined),10.3%,-,5.464%
O=C(O)C(F)(F)F.[H][C@@]12C[C@H](C(=O)NC)CN(Cc3cccc4ccccc34)[C@]1([H])CCO2,-5.04%,24.51%,-
CC(=O)c1sc(Nc2ccc(Cl)cn2)nc1C,-34.6%,-5.377%,5.724%
O=C(Nc1ccccc1F)N1CCN(Cc2noc(C3CC3)n2)CC1,-8.421%,-,19.44%
[H][C@]12CC[C@]([H])(CN(Cc3ccc(Cn4cccn4)cc3)C1)N(CCC)C2,25.45%,-2.42%,-
CS(=O)(=O)N1CC2(CCN(CC3CCCCC3)CC2)Cc2ccccc21,-18.76%,-,6.286%
Cc1noc(C)c1C(=O)NCCN1CCN(S(C)(=O)=O)CC1,13.41%,-7.115%,12.41%
CS(=O)(=O)N1CCC2(CC1)CC(NCC1CC1)c1ccccc12 (centres undefined),-,-,7.038%
CC(=O)CN1CC2(CCNCC2)COc2ccccc2S1(=O)=O,-,-,3.746%
Cc1nccc(N2CCCC(c3nnc(Cn4ccnc4C)n3C)C2)n1 (centres undefined),-18.74%,-28.16%,5.199%
CCC(=O)N1CCC(c2ncncc2C)CC1,0.8724%,-10.16%,7.874%
CC(C(=O)N(C)C)N1CCc2onc(-c3cccc(F)c3)c2C1 (centres undefined),-18.33%,-,10.56%
CC(C)CNC(=O)C1=NOC2(CCN(Cc3ccc(C(C)C)cc3)C2)C1 (centres undefined),12.74%,36.83%,3.825%
Cc1[nH]ccc1C(=O)N1CCCN1C(=O)OC(C)(C)C,15.91%,36.36%,-4.348%
Cc1cccc(CN2CCc3nnc(CN4CCCC4=O)n3CC2)n1.O=C(O)C(F)(F)F,-34.57%,11.3%,-
Cc1ccc(NC(=O)NCC2(O)CCCC2)cc1C,6.777%,21.52%,16.62%
CCCS(=O)(=O)N1CCC(n2nc(-c3cc(C)oc3C)ccc2=O)CC1,22.3%,9.407%,8.399%
NC(=O)NC(=O)CCn1ccc(-c2ccccc2)n1,-27.35%,-19.48%,3.665%
Cc1nsc(NCCNS(=O)(=O)c2cccc(Cl)c2)n1,-20.69%,5.729%,11.87%
CNc1nc2c(s1)C(c1ccc(F)cc1Cl)CC(=O)N2 (centres undefined),-4.52%,32.27%,11.9%
CCn1nc(C)c(C(C)Nc2cc(C3CCNCC3)nc(C)n2)c1C (centres undefined),7.704%,-2.468%,4.334%
CN(C)S(=O)(=O)CCNc1ncc2c(n1)CCN2c1ccccc1,11.03%,-,7.829%
CN(C)C[C@]12COC[C@H]1CN(C(=O)CCc1ccccc1)C2,-,-,-25.49%
Cn1cc(S(=O)(=O)NCc2ccsc2)cn1,-26.58%,-45.54%,3.107%
COCCCC1CCCCN1S(=O)(=O)c1cccc(C#N)c1 (centres undefined),-3.248%,25.75%,12.88%

Some entries from above, unchanged:

* Cc1cc(NC(=O)CN2CCc3cnc(C(C)C)nc3C2)on1 | Mtb heat-shock: 19%; LdMetRS: 9.639%
* CC(=O)c1ccc(C(=O)N2C[C@@H]3CC[C@H](C2)N(CC2CCC2)C3)s1 | LdMetRS: 21.34%
* COCC(=O)N1CCC2(CC1)CC(N1CCN(C)CC1)CO2 (centres undefined) | Mtb heat-shock: -4.361%; Mtb growth Cornell: 5.984%; LdMetRS: 8.696%

The values are deposited in ChEMBL (CHEMBL3988442, “University of Dundee, Small-Polar-MMV Screening Library” (2021)).